The record followed here is PubChem BioAssay AID1508600 (Functional Genomics Laboratory (NCATS/FGL), 2020).

The whole screen tested about 53,000 sequences, of which about 3,700 (7%) were called active.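 Rule for the calls: active = gene knockdowns whose robust z-score for IL-1 alpha signal is at least 2 or at most -2, so actives lie on both sides; inactive = the rest.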 The list shows a part of the results.

The assay is described as follows: Components of the Cytosolic LPS Sensing Pathway: Gene Identification via Genome-wide siRNA Screen.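 Note: robust z of the log signal after scaling to non-targeting control siRNA wells of the plate.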 The conditions noted are these: RAW264.7 macrophages, IL-1a HTRF, actives lie on both sides, screened at 100 nM (by protocol), cells primed 5 h with Pam3CSK4 first. In a few lines: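 IL-1a HTRF of supernatants after 24 hour LipidA transfection of Pam3CSK4-primed (5 hours) RAW264.7 cells, 48h post-siRNA transfection (100 nM). Scores: percent of plate negative-control median, then log-based robust z-score.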
Take GGAGAGAAGAUCAUUUCAATT against Ncam2: the z-score is active: 2.38. As to GGACCUAUUGAAGGCAAAATT against Nfkb1, the z-score is inactive: 1.6. As for GGAGCAAAAACCUCUAAAUTT against Itgb1bp2, the z-score was inactive: 0.51. Take GGAAUUUUCCAACAUGGACTT against P4htm: the z-score was inactive: -0.704. Consider CGCAAAAUAAAGAGGUGGCTT against Dhrs3, for which the z-score was inactive: 0.175. In the case of GGAGUAUUUUCCUCUCUGUTT against Klhl31, the z-score is inactive: 0.448. Next, GGUUACUUUUAUCCUGAAUTT against Plaat1: inactive: 0.552; GGAAAGGAAGUAGAUAACUTT against Arcn1: inactive: 0.162. As to GGUGAACUGCUUAAACAAATT against Gstt2, the z-score was inactive: 1.5. Take UUCUGAUGCCCUCCAUUUUTT against Psg19: the z-score was inactive: -0.612. For the sequence GGCCAAACAACUGGUGAAGTT against Nelfe, the z-score was inactive: -0.832. Consider GGUAAUAAAGCAAUUGAGUTT against Mcm5, for which the z-score was inactive: -0.204. GCUUGAUUUCUACGUUCAUTT against Slc15a2: the z-score was inactive: 1.44. For the sequence GGAAGCAGGAUCAGUUCGATT against Trrap, the z-score was inactive: -1.4. Take GGACUUGGAACACCAGUACTT against Pomt1: the z-score is inactive: -0.816. Regarding GGCCCUGUGUUUAUCAAAGTT against Cntn3, the z-score is inactive: 0.814. As to CCAAUCUCUGGCUAUAAAUTT against Teddm2, the z-score was inactive: -0.853. Next, CCAUUGGACACCUGACAGATT against Rasgef1c: inactive: -0.359. For GGAGAUUUAAACAGCUAGGTT against Gmip, the z-score is inactive: -0.418. Consider GGCAUCCUUGAGCUUUAAATT against Nufip2, for which the z-score is inactive: -0.0213. Turning to GCAUAAGGAUAUAGCAUUATT against Ctla4, the z-score is inactive: -0.72.

As to AGGAAUCCUCUAAAUGACCTT against Vmn1r174, the z-score is inactive: -0.58. Next, GGGCUUAAGGAGCACUGCATT against Tnxb: inactive: -0.874. On to GCUGGGUUCAACAUUAUAGTT against Olfr160, for which the z-score was inactive: 1.11. With GCCUUCCUCCGUUAAUCCATT against Kank2, the z-score is inactive: 0.844. Consider GGAUGACCUCAUGCUUAUUTT against Prss37, for which the z-score was active: -2.31. As to GCAAGUAUGCCAUGAGAUUTT against Fam205c, the z-score is inactive: -0.536. With GGUUAAAUACAAGUCACAATT against Slc16a12, the z-score was inactive: -0.443. GGCCUCAAAGUGUGGUUGUTT against Rhob: the z-score was inactive: 0.169.

With GGGAUAGGAUUAAACAUAGTT against Hivep2, the z-score is inactive: -0.18. As for CCUCCUGUACGAACACGCATT against Sars2, the z-score is inactive: -0.118.

Consider GGCUAUGGAUGAACUGGUUTT against Zfp513, for which the z-score is inactive: -1.14. With GCUGUUUUGUCAGUCACAUTT against Olfr519, the z-score was inactive: -1.08. As to GGCCCAAGCUCAACACAAUTT against Aida, the z-score was active: 2.31. Take CCCUUACAACUCAAGUAUCTT against Lrig3: the z-score is active: 2.1. GGUCCGACUGUCAUGAAUGTT against Slc49a4: the z-score is inactive: -0.328. Regarding GGAAGCUGAGAACCUAGCUTT against Retnlg, the z-score was inactive: 1.03. Next, GGAUCACCCAUCAAAUAUATT against Oxct1: inactive: -0.343. Consider “GGUCACUGACAGGUACCAUTT against E130018O15Rik”, for which the z-score was inactive: 0.864. Turning to GGCGGUAAAUCAAGUGGAATT against Abhd14b, the z-score is inactive: 0.345. Consider GCCAGGGUAUUAAUGCCUCTT against Gpr183, for which the z-score was inactive: 0.0276. Regarding GCGGACACUAAUGAACCUGTT against Tagln2, the z-score was inactive: 0.0454.

As to GGACUUCAUGAAGAACCUATT against Myo1g, the z-score was inactive: -0.839.

Take GCGAUGUUAAUUCCUAUUATT against Nhlrc1: the z-score is inactive: -0.0266. On to GGGUUUGAAGAGGUUUUCATT against Pbrm1, for which the z-score was inactive: 1.71. In the case of GGCUAUGCUUCUUUCCUUUTT against Cfhr1, the z-score was inactive: 0.846.

Consider GCCCUUUGAAGCCUUUGAGTT against Chchd5, for which the z-score was inactive: 0.812.

Turning to GCAUACAUAGCACUACAUATT against Olfr536, the z-score was inactive: -0.513.

As to GGUGUACUCUGUUCCCAUGTT against Psmb6, the z-score was inactive: -1.54. With GGACAAGAAACAGCUGUCATT against Stbd1, the z-score was inactive: -1.78. For “GCCUAUCAUUAACAAGUCATT against A430033K04Rik”, the z-score is inactive: -0.375. To GGAUUUGAGGUUCAUAUAATT against Cdk20 belongs active: -2.48. Turning to GGGAAGAUCAUUGUUUAUATT against Cpq, the z-score is inactive: 1.8. Next, GGGCUUUGAUCGACGGAUUTT against Clvs1: inactive: 0.587. In the case of GCCAGUUUGUGUGCAAAAATT against Lrp1, the z-score was inactive: -0.551. Take CCAGAUAACAUUAGAACUATT against Ybx1: the z-score was inactive: 1.35. Next, GGCAUAUGUGCAAAUAAAATT against Rtp3: inactive: -1.44; GGUUAAUUCCUUCAUUGCCTT against Gpr1: inactive: 1.7.

Take GGCCUAUGCGAAAAUCUGUTT against Camk2b: the z-score was inactive: -1.14. As to GCAAUCAUUUUAGCAUGUGTT against Tas2r129, the z-score was inactive: -0.248.

In the case of GGACACAGAGAAAAAAAAATT against Apeh, the z-score was inactive: -0.624. To GCCACCUCUUAUGAGGCUUTT against Lrrc41 belongs inactive: 0.281; to GCACACAAGUCUCUGAAUUTT against Ipo7, inactive: -0.328. With GGGAAUGGUUUCUUGAAAUTT against Pigk, the z-score was inactive: 0.36. For the sequence GGAUUUGUGCACGUGAUCUTT against Adam5, the z-score is inactive: -1.78. Turning to GGAAUCAACUUCAUGGUCUTT against Mrpl18, the z-score was inactive: 0.0907. GGAAUACAGCCCUAACCUCTT against Efnb3: the z-score was inactive: 0.665.

Regarding GGAAACUUACCACUACUAUTT against Tm9sf1, the z-score is inactive: 1.2. Take GCUGAUCCUAGGUUCAGAATT against Acd: the z-score was inactive: -0.449. Take CCACGGUUAUGAUGACGACTT against Dyrk1b: the z-score was inactive: 1.89. Next, GGCCUAUUCAAUGGCGUGATT against Hapln3: inactive: -0.839; GGCUAUUUCAGGUUCAAGATT against Tnfrsf9: inactive: -0.811. With UUUUGUUCUCAAAGGAAUATT against Olfr194, the z-score is inactive: 0.964.

Turning to CCUGCUGUUGAGCUUCACATT against Adra1b, the z-score is inactive: -1.34. Turning to CCUAAGAUGAUCGUAGGCUTT against Olfr1221, the z-score was inactive: -0.643. As for CCAGUCGUAGUGAAUUUGUTT against Ajm1, the z-score was inactive: -0.76. On to CCUAUGUGAAAAAAACUGCTT against Olfr1026, for which the z-score was inactive: -0.747. Next, GGAUGAGCUGAGGAAAUCCTT against Psd2: inactive: -0.535; GGGUCAGUGAAAAGAUCAGTT against Olfr433: inactive: 0.749. Turning to CGCAAGAAUCUCCUUUAAUTT against Zfp760, the z-score was inactive: 0.0651. As to GGACUAUUCUGAGAAUCCCTT against Olfr821, the z-score was inactive: -1.69. Regarding GAGAAACUAUGGCUGAAAATT against Klk1, the z-score is inactive: 0.439.

Consider GGAAGGUGGCAAGGUAUCUTT against Rab11fip3, for which the z-score is inactive: 0.203. With GGGAAUAUUAGAAACCCUATT against Camkk1, the z-score is inactive: 0.76. In the case of GGAUCAAUCCACAGACGACTT against Dbr1, the z-score was inactive: 1.56. On to GCCGUAUUCAUUAAUAAAGTT against Ash1l, for which the z-score is inactive: 0.0753. Turning to GCUGAAAUACCACUCUCCGTT against Chl1, the z-score was inactive: -1.

For CCCUAGACCAGUAAAUACCTT against Mymk, the z-score was inactive: -0.649.

As to GGGCUUUGAAUACAUCCUGTT against Prelid1, the z-score is inactive: 0.0746. On to CCUAGUACUUCGAAGAAAGTT against Tmem255a, for which the z-score was active: -2.62. Take CGAUAUUGGUGGAUUCUUUTT against Cntnap1: the z-score is inactive: 0.836. In the case of “GCAACCAGAAAUUAGAACATT against 3830403N18Rik”, the z-score is inactive: -0.123. Turning to GGUACUCAUUUGUUACCAGTT against Gpr45, the z-score was inactive: 1.27.

Consider GGCCAUGGUUGAGUUUGCUTT against Nsmce2, for which the z-score is inactive: -1.66.

For GGAGCAUUUAAAAGUUCCATT against Fam81a, the z-score was inactive: 1.38. For the sequence GGAGAGUUCACACAGACUGTT against Whrn, the z-score is inactive: -0.441. Next, CCUUCAUUUAUUCUACGAGTT against Zfp791: inactive: 0.344; GGAAAUAUCUCUGGUAAUATT against Reln: active: -2.17. To CGGUGUCGAAGGUUUGGAUTT against Mtarc2 belongs inactive: 0.0068; to GCAGUCAUACAGAUUUUGGTT against Slc15a4, inactive: 0.325; to GGCCAUUCAGAUCUUAACCTT against Hadh, inactive: 0.418. Turning to GGAGGUACAUCAAAUGGUGTT against Ankk1, the z-score is inactive: 1.57. Next, CGGUCAAAUGUUGGAAGAUTT against Trappc3: inactive: -0.42; UGUCAGCGAGGAAUAACCCTT against Olfr503: inactive: -0.944.

On to GGACAUCGUAGAGAAAGUUTT against Msi1, for which the z-score was inactive: -1.44. For the sequence CGGGUUCUACUAUCAUGCATT against Ltbp4, the z-score is inactive: 0.259. Take GCCAGACAAGCCUCAUUGATT against Ncapd2: the z-score was active: -2.2.
